Test results published in PubChem BioAssay AID504834 (National Center for Advancing Translational Sciences (NCATS), 2011).
Among all 320,000 compounds or so, about 22,000 (6.9%) were called active. Inconclusive means that the source gave no clear call. Such entries were picked first, then a sample of the others. The call rests on the fitted dose curve; in most records, active means well fitted inhibition curve with a large enough effect; inconclusive means small, poorly fitted or top-dose-only effect, or another doubt; inactive means no such curve, though single readings can be large or run the other way. A potency beside an inconclusive call is a rough fit, not a confirmed value.

Test: Primary qHTS for delayed death inhibitors of the malarial parasite plastid, 96 hour incubation
Settings: P. falciparum luciferase reporter growth; series mostly up to 28.7 µM; activity change, negative = inhibition: at the top concentration
How it was run: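 Two-generation exposure (96 h) targets delayed-death phenotype. Reporter parasites carrying integrated firefly luciferase, in red cells at 2% hematocrit and 0.05% parasitemia final, kept at 37 C, 5% CO2; luminescence loss indicates inhibition.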
On the % scale 0 is the no-effect control and ±100 the full control effect; potency means the concentration at half of the fitted maximal effect.

SMILES | activity change, negative = inhibition | Potency
O=C(NCc1ccccc1)C12CN(Cc3ccccc3)CC1C(c1cccc([N+](=O)[O-])c1)=NO2 (stereo not given) | inactive: 1.16% | 
C#CC[N+]1(CC#Cc2ccc(C#CC[N+]3(CC#C)CCOCC3)cc2)CCOCC1 |  | inconclusive: 10.4 µM [inhibitor, partial curve]
Cc1cccc(CSc2ccc3nnc(-c4ccccn4)n3n2)c1 |  | inconclusive: 2.08 µM [inhibitor, partial curve, poor fit]
CSCC(=O)NC1CCCc2c1cnn2-c1ccc(C)c(C)c1 (stereo not given) |  | inconclusive: 11.7 µM [inhibitor, single point]
COc1cccc(N/C(SC)=C(/C#N)C(=O)NCc2cccs2)c1 | inactive: 16.4% | 
COc1ccc(C(=O)N/N=C(\C)c2ccccn2)cc1OC | inactive: 50.8% | 
COc1nc(N(C)C)nc(N2CC(=O)N(CCNS(=O)(=O)c3ccc(C)cc3)C2=N)n1 |  | active: 2.33 µM
N#CC(C(=O)C1CCCCC1)c1nc2ccccc2[nH]1 (stereo not given) |  | inconclusive: 10.4 µM [inhibitor, single point]
CCO[C@H]1OC(C(=O)N2CCCCCCC2)=C[C@@H](c2coc3ccccc3c2=O)[C@@H]1CCCO |  | inconclusive: 13.1 µM [inhibitor, partial curve, poor fit]
COc1cc(/C=N/n2cnnc2)ccc1OC(=O)N(C)C |  | inconclusive: 1.85 µM [inhibitor, full curve, poor fit]
COC(=O)c1ccc(C(=O)NN)cc1 | inactive: 22.7% | 
Cn1ccnc1SCC(=O)Nc1ccc(F)c([N+](=O)[O-])c1 |  | inconclusive: 0.294 µM [inhibitor, full curve, poor fit]
O=C1CN(C(=O)c2ccc(Br)o2)C(c2ccc(F)cc2)c2cc(Cl)ccc2N1 (stereo not given) |  | inconclusive: 9.28 µM [inhibitor, single point]
Cn1c(SCC(=O)NC2CC2)nnc1-c1ccco1 |  | inconclusive: 18.5 µM [inhibitor, single point]
CCC(=O)N1CCc2cc(S(=O)(=O)N3CCCCCC3)ccc21 |  | inconclusive: 10.4 µM [inhibitor, single point]
NC(=O)NC(CCC(=O)O)C(=O)O (stereo not given) | inactive: 14.9% | 
CCOC(=O)C1CCCN(C(=O)Cc2ccc(C)cc2)C1 (stereo not given) | inactive: 1.29% | 
COc1cccc(CNC(=O)CCCn2nc(C)c3c(C)n(-c4ccc(C)cc4)nc3c2=O)c1OC |  | inconclusive: 1.04 µM [inhibitor, full curve]
COc1cc(N/N=C(\C)c2ccc(O)c(C)c2)nc(-c2ccccc2)n1 |  | inconclusive: 4.65 µM [inhibitor, partial curve]
COc1ccc(N2CCN(C(=O)c3cccc(NS(=O)(=O)c4cccc(F)c4)c3)CC2)cc1 |  | inconclusive: 18.5 µM [inhibitor, partial curve, poor fit]

At a glance, some entries already given:
SMILES | activity change, negative = inhibition | Potency
COc1ccc(C(=O)N/N=C(\C)c2ccccn2)cc1OC | inactive: 50.8% | 
COc1nc(N(C)C)nc(N2CC(=O)N(CCNS(=O)(=O)c3ccc(C)cc3)C2=N)n1 |  | active: 2.33 µM
